Test results from PubChem BioAssay AID504834 (National Center for Advancing Translational Sciences (NCATS), 2011).
About 22,000 (6.9%) of roughly 320,000 compounds were called active. Inconclusive results, whose numbers are uncertain, are shown with a selection of clear calls. The call rests on the fitted dose curve; in most records, active means well fitted inhibition curve with a large enough effect; inconclusive means small, poorly fitted or top-dose-only effect, or another doubt; inactive means no such curve, though single readings can be large or run the other way. Potencies of inconclusive entries are doubtful fits and often do not repeat.

Assay: Primary qHTS for delayed death inhibitors of the malarial parasite plastid, 96 hour incubation
Conditions: P. falciparum luciferase reporter growth; series mostly up to 28.7 µM; activity change, negative = inhibition: at the top concentration
Summary of the method: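 Parasite growth measured via integrated firefly luciferase reporter in P. falciparum. Infected erythrocytes at 2% hematocrit, 0.05% parasitemia final were treated 96 hours at 37 C under 5% CO2, and luminescence was read.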
On the % scale 0 is the no-effect control and ±100 the full control effect; potency means the concentration at half of the fitted maximal effect.

SMILES | Potency | activity change, negative = inhibition
O=c1[nH]cnc(O)c1C(c1ccc2c(c1)OCO2)c1c(O)nc[nH]c1=O | inconclusive: 18.5 µM [inhibitor, single point] | 
NNC(=O)Cn1nnc(-c2ccc(C(F)(F)F)cc2)n1 |  | inactive: 21.8%
O=C(OCc1ccc(O)cc1)c1c(-c2ccsc2)oc2ccc(N3CCOCC3)cc12 | inconclusive: 18.5 µM [inhibitor, single point] | 
c1cc(CCCc2ccncc2)ccn1 |  | inactive: 10.8%
COCCn1c(CN(Cc2ccccc2)Cc2ccccc2)nc2c1c(=O)n(C)c(=O)n2C | active: 2.94 µM | 
CCCCNC(=O)c1cc2cccc([N+](=O)[O-])c2[nH]1 | inconclusive: 16.5 µM [inhibitor, single point] | 
Cc1cccc2c1ncc1c(=O)n(-c3ccccc3)[nH]c12 | inconclusive: 16.5 µM [inhibitor, single point] | 
C/C(=N\Nc1ccc(S(=O)(=O)N2CCOCC2)cc1[N+](=O)[O-])C(C)C | inconclusive: 13.1 µM [inhibitor, partial curve] | 
O=C(CSc1nnc(CNC(=O)c2cccs2)o1)NCc1ccc(F)cc1 | inconclusive: 0.185 µM [inhibitor, partial curve, poor fit] | 
CCOC(=O)C1(Cc2cccc(Cl)c2)CCCN(C(=O)CCSC)C1 (stereo unspecified) |  | inactive: 378%
COc1cc2cc(CCCOC(=O)c3ccc(C#N)cc3)oc(=O)c2cc1OC |  | inactive: -0.745%
CC1=NN(C(N)=S)C(=O)C1N=Nc1cccc([N+](=O)[O-])c1 (stereo unspecified) |  | inactive: 479%
Cc1cccc(N2CCN(C(=O)Cn3sc4nc(C)cc(C)c4c3=O)CC2C)c1 (stereo unspecified) | inconclusive: 9.28 µM [inhibitor, single point] | 
O=C(NN=C1CCCC1)c1cc(Cl)cc(Cl)c1O | inconclusive: 18.5 µM [inhibitor, single point] | 
COc1ccccc1-n1c(=S)sc2c(=O)n(Cc3ccco3)c(SC)nc21 | inconclusive: 5.22 µM [inhibitor, partial curve] | 
CC(=O)N1c2ccc(S(=O)(=O)N3CCCCC3)cc2CC1C (stereo unspecified) | inconclusive: 0.233 µM [inhibitor, full curve] | 
COc1ccc(-c2noc(-c3cccnc3)n2)cc1OC |  | inactive: 119%
Cc1ccc(-c2csc3ncn(CC(N)=O)c(=O)c23)cc1C | inconclusive: 10.4 µM [inhibitor, single point] | 
Cn1nc(C(=O)Nc2cccc(C(=O)NC3CC3)c2)c2ccccc2c1=O |  | inactive: 16.4%
Cc1ccc(C)c(S(=O)(=O)c2c(N)n(/N=C/c3ccco3)c3nc4ccccc4nc23)c1 | inconclusive: 1.17 µM [inhibitor, partial curve, poor fit] | 
Cc1cc(C)c2nc(C)cc(Nc3ccc(C(=O)N(C)C)cc3)c2c1 |  | inactive: 4.12%
Cc1ccc(CNC(=O)C2CC(=O)N(C3CCCCCC3)C2)cc1 (stereo unspecified) | inconclusive: 18.5 µM [inhibitor, single point] | 
O=C(O)c1ccccc1OP(=O)(O)O | inconclusive: 4.26 µM [inhibitor, full curve] | 
COC(=O)c1ccc(C2c3[nH]c4ccccc4c3C[C@H]3C(=O)N(C)CC(=O)N23)cc1 (stereo partly specified) | inconclusive: 11.7 µM [inhibitor, partial curve] | 

Looked up one by one from above, 3 records:
SMILES | Potency | activity change, negative = inhibition
COCCn1c(CN(Cc2ccccc2)Cc2ccccc2)nc2c1c(=O)n(C)c(=O)n2C | active: 2.94 µM | 
COc1ccccc1-n1c(=S)sc2c(=O)n(Cc3ccco3)c(SC)nc21 | inconclusive: 5.22 µM [inhibitor, partial curve] | 
C/C(=N\Nc1ccc(S(=O)(=O)N2CCOCC2)cc1[N+](=O)[O-])C(C)C | inconclusive: 13.1 µM [inhibitor, partial curve] | 

The listing continues:

SMILES | Potency | activity change, negative = inhibition
Fc1ccccc1/C=N/NC(=S)Nc1ccc(Cl)cc1Cl |  | inactive: -33.9%
CSc1ncccc1C(=O)NC1CCCc2c1cnn2-c1ccc(C)c(C)c1 (stereo unspecified) |  | inactive: -6.64%
C=CCN(C(=O)c1csnn1)C(C(=O)NC1CCCC1)c1ccccc1 (stereo unspecified) | inconclusive: 11.7 µM [inhibitor, single point] | 
O=C(N/N=C/c1coc2ccccc2c1=O)c1cc2ccccc2o1 |  | inactive: 1.51%
CN(C)c1cc[n+](CC(=O)c2ccc(OC(F)F)cc2)cc1 | active: 0.738 µM | 
CCn1nc(C(=O)NNC(=O)c2ccccc2OCc2c(C)noc2C)c2ccccc2c1=O | inconclusive: 18.5 µM [inhibitor, single point] | 
CCN(CC)C(=O)C12C(=O)Oc3ccccc3C1C2(C)C(=O)c1ccc(F)cc1 (stereo unspecified) | inconclusive: 10.4 µM [inhibitor, partial curve, poor fit] | 
CCCNC(=O)C1CCN(S(=O)(=O)c2cccs2)CC1 |  | inactive: 25.7%
COc1ccc(N(CC(=O)N2CCCCC2)S(=O)(=O)c2c(C)nn(C)c2C)cc1 | inconclusive: 7.38 µM [inhibitor, partial curve, poor fit] | 
CCN(CC)c1ccc2cc(S(=O)(=O)c3ccc(Cl)cc3)c(=O)oc2c1 | active: 13.1 µM | 
CC(C)=CC(=O)Nc1ccc(OCc2ccccc2)cc1 |  | inactive: -0.364%
COc1ccc(-c2nc(SC(C)C(=O)NCC3CCCO3)n[nH]2)cc1 (stereo unspecified) |  | inactive: -9.04%
O=[N+]([O-])c1ccc(N2N=C(c3ccccc3)CC2c2ccccc2O)cc1 (stereo unspecified) | inconclusive: 2.08 µM [inhibitor, partial curve] | 
CC(C)CCNC(=O)c1cccc(C(=O)NCCC(C)C)c1 |  | inactive: -23.8%
CC1CC(C)CN(CCCOc2ccccc2[N+](=O)[O-])C1 (stereo unspecified) | inconclusive: 13.1 µM [inhibitor, single point] | 
CC(OC(=O)c1ccc(Cl)c([N+](=O)[O-])c1)C(=O)N1CCN(Cc2ccccc2)CC1 (stereo unspecified) | inconclusive: 10.4 µM [inhibitor, single point] | 
Cc1ccccc1N1CCN(C(=O)c2ccccc2NC(=O)C2CC=CCC2C(=O)O)CC1 (stereo unspecified) | inconclusive: 18.5 µM [inhibitor, single point] | 
CC(C)CC(=O)n1sc(NC(=O)c2ccccc2)nc1=O |  | inactive: 4.33%
COC(=O)C1=C(C)N(Cc2ccco2)C(=O)N[C@H]1c1ccc(Br)cc1 | inconclusive: 16.5 µM [inhibitor, single point] | 
CCNC(=S)N(CCO)Cc1cc2cc3c(cc2[nH]c1=O)OCO3 |  | inactive: 0%
Cc1ccc(C(O)(CNCc2ccccc2)c2ccccc2)cc1 (stereo unspecified) | inconclusive: 2.62 µM [inhibitor, full curve] | 
CCOc1ccccc1/C=C(\NC(=O)c1ccccc1)C(=O)NCCC(=O)O |  | inactive: -6.68%
Cc1cccc(-c2cc(C(=O)Nc3sc(C)c(C)c3C(N)=O)c3ccccc3n2)c1 | inconclusive: 18.5 µM [inhibitor, single point] | 
O=C(NC1CCCCC1)c1ccc2c(c1)OCCO2 | inconclusive: 18.5 µM [inhibitor, single point] | 

SMILES | Potency | activity change, negative = inhibition
COC(=O)c1ccccc1NC(=O)c1noc2c1CCC2 | active: 1.04 µM | 
C/C(=N\NC(=O)C1CC1(c1ccccc1)c1ccccc1)c1cccc([N+](=O)[O-])c1 (stereo unspecified) | inconclusive: 3.29 µM [inhibitor, partial curve, poor fit] | 
COc1cc(OC)c(-c2nc3c[n+](CC(=O)c4ccccc4)ccc3n2C)cc1OC | inconclusive: 0.928 µM [inhibitor, partial curve, poor fit] | 
CCn1ncc(/C=C/C(=O)Nc2c(C)nn(Cc3ccc(Cl)cc3Cl)c2C)c1C | inconclusive: 10.4 µM [inhibitor, partial curve] | 
Cc1nc(SCc2ccccc2)[nH]c(=O)c1CC(=O)OCC(C)C | inconclusive: 2.62 µM [inhibitor, partial curve, poor fit] | 
Cc1ccc(C(C)C)c(OCc2ccc(C(=O)N/N=C/c3cccc(O)c3O)cc2)c1 | active: 2.62 µM | 
Oc1cccc(NC(=S)Nc2cccnc2)c1 |  | inactive: 60.3%
CCOc1ccc(NC(=S)NC(=O)c2cccnc2)c([N+](=O)[O-])c1 | inconclusive: 10.4 µM [inhibitor, single point] | 
O=C(/C=C/c1cccc(F)c1)N(c1ccccn1)C1CCCCC1 | inconclusive: 8.28 µM [inhibitor, partial curve] | 
C#CCOCCOCCOCCNc1nc(N2CCN(C(=O)CCCCCCCCCCNC(=O)Cn3cc(C[C@@H](C)O)nn3)CC2)nc(N2CCN(C(=O)CCCCCCCCCCNC(=O)[C@@H]([C@H](C)CC)n3cc(CCCCCN)nn3)CC2)n1 | inconclusive: 13.1 µM [inhibitor, partial curve, poor fit] | 
Cc1ccc(CNC(=O)CCc2cn(C)c3ccccc23)cc1 | active: 13.1 µM | 
Cc1nn(Cc2ccc(C(=O)N/N=C/c3ccncc3)o2)c(C)c1Cl | inconclusive: 7.38 µM [inhibitor, partial curve, poor fit] | 
Cc1noc(C)c1S(=O)(=O)N1CCC(C(=O)N2CCC(N3CCCCC3)CC2)CC1 | inconclusive: 8.28 µM [inhibitor, partial curve] | 
Brc1cccc(OCCCCN2CCCCC2)c1 | inconclusive: 10.4 µM [inhibitor, single point] | 
Cc1ccc(C)c(NC(=S)/C(=C(\[O-])c2ccc(OC(F)F)cc2)[n+]2ccccc2)c1 | inconclusive: 2.94 µM [inhibitor, full curve, poor fit] | 
CCc1cc2ccc(OC)cc2nc1SCC(=O)N1CCN(C(=O)c2ccco2)CC1 | inconclusive: 0.0037 µM [inhibitor, full curve, poor fit] | 
CCOc1ccccc1NC(=S)NC(=O)CCc1ccccc1 | inconclusive: 18.5 µM [inhibitor, single point] | 
COc1cccc(NC(=O)c2ccccc2-c2ccccc2C(=O)O)c1 |  | inactive: 27.8%
Cc1cccnc1CCNC(=O)CCc1nnc(-c2ccccc2)o1 |  | inactive: 3.52%
CCc1ccc(-c2cc(C)no2)cc1S(=O)(=O)NCCCN1CCN(c2ccccc2)CC1 | inconclusive: 8.28 µM [inhibitor, partial curve] | 
COc1cc(/C=N/NC(=O)c2cc(-c3ccco3)nc3ccccc23)cc(OC)c1O |  | inactive: -20.2%
CC(=O)NNC(=S)NCCc1ccccc1 |  | inactive: -3.94%
CCOC(=O)CCCCNCc1ccccc1 | inconclusive: 0.0738 µM [inhibitor, full curve, poor fit] | 
